Reference: patent publication US7645751B2, “Mandelic acid derivatives and their use as thrombin inhibitors” (AstraZeneca, priority 2000, dated 2010)
Counter-ions that a name gives are not always drawn. Some results were stated once for a whole list of compounds, not compound by compound. For some of these results: For at least one compound, name, drawing or mass did not settle the structure.

Experiments:
[1] = Test E: determination of thrombin time ex vivo (plasma concentration of thrombin inhibitor after oral or parenteral administration); format: in vivo, rat; details: conscious rats, LC-MS/MS of plasma
[2] = tested on: pooled normal human citrated plasma; assay: Test D: determination of activated partial thromboplastin time (APTT); format: biochemical; details: concentration of inhibitor in human plasma that doubled the APTT
Human thrombin = biological target: T1, Human thrombin (Homo sapiens, UniProt P00734); assay: Test A: determination of thrombin clotting time (TT); format: biochemical; details: concentration of inhibitor that doubles the thrombin clotting time, plasma
T1 construct: the conversion of the proenzyme prothrombin to the active enzyme thrombin; purchased Sigma Chem. Co or Hematologic Technologies T 6769

In the case of `NC(=NO)c1ccc(CNC(=O)[C@@H]2CCN2C(=O)[C@H](O)c2cc(Cl)cc(OC(F)F)c2)cc1` [Example 2, Ph(3-Cl)(5-OCHF2)—(R)CH(OH)C(O)-Aze-Pab(OH)], the “oral and/or parenteral bioavailability as the corresponding active inhibitor (free amidine)” value [1] is reported as “oral and/or parenteral bioavailability in the rat as the corresponding active inhibitor (free amidine)”.

In the case of `N=C(N)c1ccc(CNC(=O)[C@@H]2CCN2C(=O)[C@H](O)c2cc(Cl)cc(OC(F)F)c2)cc1` [Example 3, Ph(3-Cl)(5-OCHF2)—(R)CH(OH)C(O)-Aze-Pab], the IC50 [2] is reported as < 1000 nM.

For `NC(=NC(=O)OC1CCCC1)c1ccc(CNC(=O)[C@@H]2CCN2C(=O)[C@H](O)c2cc(Cl)cc(OC(F)F)c2)cc1` [Example 4, Ph(3-Cl)(5-OCHF2)—(R)CH(OH)C(O)-Aze-Pab(COOcPentyl)], the “oral and/or parenteral bioavailability as the corresponding active inhibitor (free amidine)” value [1] was “oral and/or parenteral bioavailability in the rat as the corresponding active inhibitor (free amidine)”.

In the case of `CON=C(N)c1ccc(CNC(=O)[C@@H]2CCN2C(=O)[C@H](O)c2cc(Cl)cc(OC(F)(F)F)c2)cc1` [Example 7, Ph(3-Cl)(5-OCF3)—(R)CH(OH)C(O)-Aze-Pab(OMe)], the “oral and/or parenteral bioavailability as the corresponding active inhibitor (free amidine)” value [1] is reported as “oral and/or parenteral bioavailability in the rat as the corresponding active inhibitor (free amidine)”.

For `CON=C(N)c1ccc(CNC(=O)[C@@H]2CCN2C(=O)[C@H](O)c2cc(Cl)cc(OC(F)F)c2)cc1` [Example 12, Ph(3-Cl)(5-OCHF2)—(R)CH(OH)C(O)-Aze-Pab(OMe)], the “oral and/or parenteral bioavailability as the corresponding active inhibitor (free amidine)” value [1] was “oral and/or parenteral bioavailability in the rat as the corresponding active inhibitor (free amidine)”.

For `N=C(N)c1ccc(CNC(=O)[C@@H]2CCN2C(=O)[C@H](O)c2cccc(OC(F)F)c2)cc1` [Example 13, Ph(3-OCHF2)—(R)CH(OH)C(O)-Aze-Pab×HOAc], the IC50 [2] was < 1000 nM.

In the case of `N=C(N)c1ccc(CNC(=O)[C@@H]2CCN2C(=O)[C@H](O)c2cc(Cl)cc(OCC(F)(F)F)c2)cc1` [Example 15, Ph(3-Cl)(5-OCH2CF3)—(R)CH(OH)C(O)-Aze-Pab×TFA], the IC50 [2] is reported as < 1000 nM.

With `CON=C(N)c1ccc(CNC(=O)[C@@H]2CCN2C(=O)[C@H](O)c2cc(Cl)cc(OCC(F)(F)F)c2)cc1` [Example 16, Ph(3-Cl)(5-OCH2CF3)—(R)CH(OH)C(O)-Aze-Pab(OMe)] the “oral and/or parenteral bioavailability as the corresponding active inhibitor (free amidine)” value [1] was “oral and/or parenteral bioavailability in the rat as the corresponding active inhibitor (free amidine)”.

With `N=C(N)c1ccc(CNC(=O)[C@@H]2CCN2C(=O)[C@H](O)c2cc(Cl)cc(OCC(F)F)c2)cc1` [Example 17, Ph(3-Cl)(5-OCH2CHF2)—(R)CH(OH)C(O)-Aze-Pab×TFA] the IC50 [2] was < 1000 nM.

In the case of `CON=C(N)c1ccc(CNC(=O)[C@@H]2CCN2C(=O)[C@H](O)c2cc(Cl)cc(OCC(F)F)c2)cc1` [Example 18, Ph(3-Cl)(5-OCH2CHF2)—(R)CH(OH)C(O)-Aze-Pab(OMe)], the “oral and/or parenteral bioavailability as the corresponding active inhibitor (free amidine)” value [1] is reported as “oral and/or parenteral bioavailability in the rat as the corresponding active inhibitor (free amidine)”.

With `CON=C(N)c1ccc(CNC(=O)[C@@H]2CCN2C(=O)[C@H](O)c2cc(Cl)cc(OCF)c2)cc1` [Example 20, Ph(3-Cl)(5-OCH2F)—(R)CH(OH)C(O)-Aze-Pab(OMe)] the “oral and/or parenteral bioavailability as the corresponding active inhibitor (free amidine)” value [1] was “oral and/or parenteral bioavailability in the rat as the corresponding active inhibitor (free amidine)”.

For `N=C(N)c1ccc(CNC(=O)[C@@H]2CCN2C(=O)[C@H](O)c2cc(Cl)cc(OCCF)c2)cc1` [Example 21, Ph(3-Cl)(5-OCH2H2F)—(R)CH(OH)C(O)-Aze-Pab×TFA], the IC50 [2] was < 1000 nM.

In the case of `CON=C(N)c1ccc(CNC(=O)[C@@H]2CCN2C(=O)[C@H](O)c2cc(Cl)cc(OCCF)c2)cc1` [Example 22, Ph(3-Cl)(5-OCH2CH2F)—(R)CH(OH)C(O)-Aze-Pab(OMe)], the “oral and/or parenteral bioavailability as the corresponding active inhibitor (free amidine)” value [1] is reported as “oral and/or parenteral bioavailability in the rat as the corresponding active inhibitor (free amidine)”.

In the case of `CON=C(N)c1ccc(CNC(=O)[C@@H]2CCN2C(=O)[C@H](O)c2cc(Cl)cc(OC(CF)CF)c2)cc1` [Example 24, Ph(3-Cl)(5-OCH(CH2F)2)—(R)CH(OH)C(O)-Aze-Pab(OMe)], the “oral and/or parenteral bioavailability as the corresponding active inhibitor (free amidine)” value [1] is reported as “oral and/or parenteral bioavailability in the rat as the corresponding active inhibitor (free amidine)”.

For `N=C(N)c1ccc(CNC(=O)[C@@H]2CCN2C(=O)[C@H](O)c2cc(F)cc(OC(F)F)c2)cc1` [Example 25, Ph(3-F)(5-OCHF2)—(R)CH(OH)C(O)-Aze-Pab×TFA], the IC50 [2] was < 1000 nM.

In the case of `CON=C(N)c1ccc(CNC(=O)[C@@H]2CCN2C(=O)[C@H](O)c2cc(F)cc(OC(F)F)c2)cc1` [Example 26, Ph(3-F)(5-OCHF2)—(R)CH(OH)C(O)-Aze-Pab(OMe)], the “oral and/or parenteral bioavailability as the corresponding active inhibitor (free amidine)” value [1] is reported as “oral and/or parenteral bioavailability in the rat as the corresponding active inhibitor (free amidine)”.

With `N=C(N)c1ccc(CNC(=O)[C@@H]2CCN2C(=O)[C@H](O)c2cc(Br)cc(OCF)c2)cc1` [Example 27, Ph(3-Br)(5-OCH2F)—(R)CH(OH)C(O)-Aze-Pab×TFA] the IC50 [2] was < 1000 nM.

For `N=C(N)c1ccc(CNC(=O)[C@@H]2CCN2C(=O)[C@H](O)c2cc(Br)cc(OC(F)F)c2)cc1` [Example 28, Ph(3-Br)(5-OCHF2)—(R)CH(OH)C(O)-Aze-Pab×TFA], the IC50 [2] was < 1000 nM.

In the case of `NC(=NO)c1ccc(CNC(=O)[C@@H]2CCN2C(=O)[C@H](O)c2cc(Cl)cc(OCC(F)F)c2)cc1` [Example 30, Ph(3-Cl)(5-OCH2CHF2)—(R)CH(OH)C(O)-Aze-Pab(OH)], the “oral and/or parenteral bioavailability as the corresponding active inhibitor (free amidine)” value [1] is reported as “oral and/or parenteral bioavailability in the rat as the corresponding active inhibitor (free amidine)”.

In the case of `N=C(N)c1ccc(CNC(=O)[C@@H]2CCCN2C(=O)[C@H](O)c2cc(Cl)cc(OC(F)F)c2)cc1` [Example 32, Ph(3-Cl)(5-OCHF2)—(R)CH(OH)—C(O)-Pro-Pab], the IC50 [2] is reported as < 1000 nM.

With `CON=C(N)c1ccc(CNC(=O)[C@@H]2CCCN2C(=O)[C@H](O)c2cc(Cl)cc(OC(F)F)c2)cc1` [Example 33, Ph(3-Cl)(5-OCHF2)—(R)CH(OH)—C(O)-Pro-Pab(OMe)] the “oral and/or parenteral bioavailability as the corresponding active inhibitor (free amidine)” value [1] was “oral and/or parenteral bioavailability in the rat as the corresponding active inhibitor (free amidine)”.

For `N=C(N)c1ccc(CNC(=O)[C@@H]2CCN2C(=O)[C@H](O)c2cc(Cl)cc(OC(F)F)c2)cn1` [Example 34, Ph(3-Cl)(5-OCHF2)—(R)CH(OH)C(O)-Aze-NH—CH2-((2-amidino)-5-pyridinyl)], the IC50 [2] was < 1000 nM.

In the case of `N=C(N)c1cc(F)c(CNC(=O)[C@@H]2CCN2C(=O)[C@H](O)c2cc(Cl)cc(OC(F)F)c2)c(F)c1` [Example 39, Ph(3-Cl)(5-OCHF2)—(R)CH(OH)C(O)-Aze-Pab(2,6-diF)], the IC50 (Human thrombin) is reported as < 20 nM.

For `CCON=C(N)c1ccc(CNC(=O)[C@@H]2CCN2C(=O)[C@H](O)c2cc(Cl)cc(OC(F)F)c2)cc1` [Example 43, Ph(3-Cl)(5-OCHF2)—(R)CH(OH)C(O)-Aze-Pab(OEt)], the “oral and/or parenteral bioavailability as the corresponding active inhibitor (free amidine)” value [1] was “oral and/or parenteral bioavailability in the rat as the corresponding active inhibitor (free amidine)”.

For `CCCON=C(N)c1ccc(CNC(=O)[C@@H]2CCN2C(=O)[C@H](O)c2cc(Cl)cc(OC(F)F)c2)cc1` [Example 44, Ph(3-Cl)(5-OCHF2)—(R)CH(OH)C(O)-Aze-Pab(OnPr)], the “oral and/or parenteral bioavailability as the corresponding active inhibitor (free amidine)” value [1] was “oral and/or parenteral bioavailability in the rat as the corresponding active inhibitor (free amidine)”.

For `CC(C)ON=C(N)c1ccc(CNC(=O)[C@@H]2CCN2C(=O)[C@H](O)c2cc(Cl)cc(OC(F)F)c2)cc1` [Example 45, Ph(3-Cl)(5-OCHF2)—(R)CH(OH)C(O)-Aze-Pab(OiPr)], the “oral and/or parenteral bioavailability as the corresponding active inhibitor (free amidine)” value [1] was “oral and/or parenteral bioavailability in the rat as the corresponding active inhibitor (free amidine)”.

For “Ph(3-Br)(5-OCHF2)—(R)CH(OH)C(O)-Aze-Pab(OMe) [Example 29]”, the “oral and/or parenteral bioavailability as the corresponding active inhibitor (free amidine)” value [1] was “oral and/or parenteral bioavailability in the rat as the corresponding active inhibitor (free amidine)”.

With “Ph(3-Cl)(5-OCHF2)—(R)CH(OH)C(O)-Aze-Pab(Z) [Example 5]” the “oral and/or parenteral bioavailability as the corresponding active inhibitor (free amidine)” value [1] was “oral and/or parenteral bioavailability in the rat as the corresponding active inhibitor (free amidine)”.
